{"source": "paper PMC9932578", "about": "(Clinical Cancer Research, 2022)", "key": {"[1]": {"tested_on": "relapsed/refractory hematologic malignancies (AML, NHL, MM, MDS, CTCL)"}, "[2]": {"settings": "human, in vivo"}, "[3]": {"assay": "Plasma pharmacokinetics", "settings": "therapeutic doses (60–120 mg QD)"}, "[4]": {"settings": "Part 1 total population (n = 87)"}, "[5]": {"settings": "Part 2 total population (n = 24)"}, "[6]": {"settings": "Patient 1, 120 mg QD, after 4 months"}, "[7]": {"settings": "Total study population (N = 111)"}, "[8]": {"settings": "patient with NHL (DLBCL), 80 mg QD"}}, "note": "Read-outs that look alike come from different tables or passages of the source. Marks after values point to notes of the source that are not given here."}
{"molecule": "CCNC(=O)C[C@@H]1N=C(c2ccc(Cl)cc2)c2cc(OC)ccc2-n2c(C)nnc21", "note": "[molibresib]", "values": [{"measurement": "patients achieving complete response", "setting": "[1]; Part 1", "value": 3, "unit": "patients"}, {"measurement": "patients achieving partial response", "setting": "[1]; Part 1", "value": 6, "unit": "patients"}, {"measurement": "patients achieving complete response", "setting": "[1]; Part 1 AML", "value": 2, "unit": "patients"}, {"measurement": "patients achieving partial response", "setting": "[1]; Part 1 AML", "value": 4, "unit": "patients"}, {"measurement": "patients achieving complete response", "setting": "[1]; Part 1 NHL", "value": 1, "unit": "patients"}, {"measurement": "patients achieving partial response", "setting": "[1]; Part 1 NHL", "value": 2, "unit": "patients"}, {"measurement": "Best response: CR", "setting": "[1]; [4]", "value": "1 (1) n (%)"}, {"measurement": "Best response: CRi/CRp", "setting": "[1]; [4]", "value": "2 (2) n (%)"}, {"measurement": "Best response: No response", "setting": "[1]; [4]", "value": "23 (26) n (%)"}, {"measurement": "Best response: Not evaluable", "setting": "[1]; [4]", "value": "23 (26) n (%)"}, {"measurement": "Best response: PR", "setting": "[1]; [4]", "value": "6 (7) n (%)"}, {"measurement": "Best response: Progressive disease", "setting": "[1]; [4]", "value": "23 (26) n (%)"}, {"measurement": "Best response: SD", "setting": "[1]; [4]", "value": "9 (10) n (%)"}, {"measurement": "Best response: mCR", "setting": "[1]; [4]", "value": "0 n (%)"}, {"measurement": "ORR", "setting": "[1]; [4]", "value": "10 (4.8–18.7) % (95% CI)"}, {"measurement": "patients achieving complete response", "setting": "[1]; Part 2 (MDS)", "value": 3, "unit": "patients"}, {"measurement": "patients achieving partial response", "setting": "[1]; Part 2 (MDS)", "value": 1, "unit": "patients"}, {"measurement": "Best response: CR", "setting": "[1]; Part 2 CTCL cohort (n = 8)", "value": "0 n (%)"}, {"measurement": "Best response: CRi/CRp", "setting": "[1]; Part 2 CTCL cohort (n = 8)", "value": "0 n (%)"}, {"measurement": "Best response: No response", "setting": "[1]; Part 2 CTCL cohort (n = 8)", "value": "0 n (%)"}, {"measurement": "Best response: Not evaluable", "setting": "[1]; Part 2 CTCL cohort (n = 8)", "value": "3 (38) n (%)"}, {"measurement": "Best response: PR", "setting": "[1]; Part 2 CTCL cohort (n = 8)", "value": "0 n (%)"}, {"measurement": "Best response: SD", "setting": "[1]; Part 2 CTCL cohort (n = 8)", "value": "5 (63) n (%)"}, {"measurement": "Best response: mCR", "setting": "[1]; Part 2 CTCL cohort (n = 8)", "value": "0 n (%)"}, {"measurement": "ORR", "setting": "[1]; Part 2 CTCL cohort (n = 8)", "value": "0 % (95% CI)"}, {"measurement": "Best response: CR", "setting": "[1]; Part 2 MDS cohort (n = 16)", "value": "1 (6) n (%)"}, {"measurement": "Best response: CRi/CRp", "setting": "[1]; Part 2 MDS cohort (n = 16)", "value": "1 (6)^c n (%)"}, {"measurement": "Best response: No response", "setting": "[1]; Part 2 MDS cohort (n = 16)", "value": "3 (19) n (%)"}, {"measurement": "Best response: Not evaluable", "setting": "[1]; Part 2 MDS cohort (n = 16)", "value": "8 (50) n (%)"}, {"measurement": "Best response: PR", "setting": "[1]; Part 2 MDS cohort (n = 16)", "value": "1 (6) n (%)"}, {"measurement": "Best response: SD", "setting": "[1]; Part 2 MDS cohort (n = 16)", "value": "1 (6) n (%)"}, {"measurement": "Best response: mCR", "setting": "[1]; Part 2 MDS cohort (n = 16)", "value": "1 (6) n (%)"}, {"measurement": "Best response: CR", "setting": "[1]; [5]", "value": "1 (4) n (%)"}, {"measurement": "Best response: CRi/CRp", "setting": "[1]; [5]", "value": "1 (4) n (%)"}, {"measurement": "Best response: No response", "setting": "[1]; [5]", "value": "3 (13) n (%)"}, {"measurement": "Best response: Not evaluable", "setting": "[1]; [5]", "value": "11 (46) n (%)"}, {"measurement": "Best response: PR", "setting": "[1]; [5]", "value": "1 (4) n (%)"}, {"measurement": "Best response: SD", "setting": "[1]; [5]", "value": "6 (25) n (%)"}, {"measurement": "Best response: mCR", "setting": "[1]; [5]", "value": "1 (4) n (%)"}, {"measurement": "absolute neutrophil count (recovery)", "setting": "[1]; [6]", "value": "2.94e+09", "unit": "L⁻¹"}, {"measurement": "hemoglobin level (recovery)", "setting": "[1]; [6]", "value": 10.2, "unit": "g/dL"}, {"measurement": "bone marrow blasts", "setting": "[1]; Patient 1, AML after MDS, 120 mg QD, after 4 months of treatment", "value": 0, "unit": "%"}, {"measurement": "time to progression with increasing marrow blast counts", "setting": "[1]; Patient 6, 60 mg QD", "value": 134, "unit": "days"}, {"measurement": "time to documented PR", "setting": "[1]; Patient 6, AML with myelodysplasia-related changes, 60 mg QD", "value": 99, "unit": "days"}, {"measurement": "Best response: CR", "setting": "[1]; [7]", "value": "2 (2) n (%)"}, {"measurement": "Best response: CRi/CRp", "setting": "[1]; [7]", "value": "3 (3) n (%)"}, {"measurement": "Best response: No response", "setting": "[1]; [7]", "value": "26 (23) n (%)"}, {"measurement": "Best response: Not evaluable", "setting": "[1]; [7]", "value": "34 (31) n (%)"}, {"measurement": "Best response: PR", "setting": "[1]; [7]", "value": "7 (6) n (%)"}, {"measurement": "Best response: Progressive disease", "setting": "[1]; [7]", "value": "23 (21) n (%)"}, {"measurement": "Best response: SD", "setting": "[1]; [7]", "value": "15 (14) n (%)"}, {"measurement": "Best response: mCR", "setting": "[1]; [7]", "value": "1 (<1) n (%)"}, {"measurement": "ORR", "setting": "[1]; [7]", "value": "13 (6.9–20.6) % (95% CI)"}, {"measurement": "total duration complete remission was maintained", "setting": "[1]; [8]", "value": 53, "unit": "weeks"}, {"measurement": "treatment time at which patient was in complete remission", "setting": "[1]; [8]", "value": 16, "unit": "weeks"}, {"measurement": "patients achieving partial response", "setting": "[1]; whole study", "value": 7, "unit": "patients"}, {"measurement": "AE: diarrhea", "setting": "[2]", "value": 50, "unit": "%"}, {"measurement": "AE: nausea", "setting": "[2]", "value": 46, "unit": "%"}, {"measurement": "AE: thrombocytopenia", "setting": "[2]", "value": 40, "unit": "%"}, {"measurement": "Grade 3+ AE: anemia", "setting": "[2]", "value": 15, "unit": "%"}, {"measurement": "Grade 3+ AE: febrile neutropenia", "setting": "[2]", "value": 15, "unit": "%"}, {"measurement": "Grade 3+ AE: thrombocytopenia", "setting": "[2]", "value": 37, "unit": "%"}, {"measurement": "diarrhea leading to dose interruption", "setting": "[2]", "value": 10, "unit": "%"}, {"measurement": "dysgeusia leading to permanent discontinuation", "setting": "[2]", "value": 4, "unit": "%"}, {"measurement": "patients permanently discontinuing study treatment", "setting": "[2]", "value": 30, "unit": "%"}, {"measurement": "patients requiring dose interruptions", "setting": "[2]", "value": 61, "unit": "%"}, {"measurement": "patients requiring dose reductions", "setting": "[2]", "value": 25, "unit": "%"}, {"measurement": "patients with SAE considered related to treatment", "setting": "[2]", "value": 38, "unit": "%"}, {"measurement": "patients with maximum Grade 1 or 2 AE", "setting": "[2]", "value": 10, "unit": "%"}, {"measurement": "sepsis leading to permanent discontinuation", "setting": "[2]", "value": 5, "unit": "%"}, {"measurement": "thrombocytopenia leading to dose interruption", "setting": "[2]", "value": 10, "unit": "%"}, {"measurement": "thrombocytopenia leading to dose reduction", "setting": "[2]", "value": 15, "unit": "%"}, {"measurement": "treatment-related SAE: cardiac failure", "setting": "[2]", "value": 2, "unit": "%"}, {"measurement": "treatment-related SAE: decreased appetite", "setting": "[2]", "value": 2, "unit": "%"}, {"measurement": "treatment-related SAE: diarrhea", "setting": "[2]", "value": 2, "unit": "%"}, {"measurement": "treatment-related SAE: hematuria", "setting": "[2]", "value": 2, "unit": "%"}, {"measurement": "treatment-related SAE: increased alanine aminotransferase", "setting": "[2]", "value": 2, "unit": "%"}, {"measurement": "treatment-related SAE: neutropenia", "setting": "[2]", "value": 3, "unit": "%"}, {"measurement": "treatment-related SAE: pyrexia", "setting": "[2]", "value": 2, "unit": "%"}, {"measurement": "treatment-related SAE: thrombocytopenia", "setting": "[2]", "value": 20, "unit": "%"}, {"measurement": "change in exposure (AUC0–24) with repeated administration", "setting": "[3]", "value": "appeared to decrease"}]}
